Values from PubChem BioAssay AID1259424 (University of Nebraska Medical Center, 2018).

- Aim: 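Find knockdowns that reproduce the expression shifts seen after KSR1 loss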 (primary screen)
- System: human HCT116 colon cancer cells
- Reagents: siRNA pool against human genes, 50 nM
- Measured: 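Log2 levels of six mRNAs (branched-DNA multiplex), adjusted by two reference genes and the non-targeting median, then scored against the average KSR1 knockdown pattern as Pearson r and euclidean distance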
- Scale: mean correlation with KSR1 profile: higher = expression change more like KSR1 knockdown; mean distance from KSR1 profile: higher = expression change less like KSR1 knockdown
This is a random part of about 14,000 deposited reagents. 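Higher correlation or smaller distance means closer resemblance to KSR1 loss; control wells, including KSR1 knockdowns, recur on many plates.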 Further read-outs or replicates are left out here. The record does not give: the time to read-out.

BMPR2 [SID363992492] — mean correlation with KSR1 profile = 0.461; mean distance from KSR1 profile = 1.42
REG1B [SID363997304] — mean correlation with KSR1 profile = -0.692; mean distance from KSR1 profile = 1.59
SHCBP1 [SID364003023] — mean correlation with KSR1 profile = -0.101; mean distance from KSR1 profile = 2.87
EMC2 [SID363999025] — mean correlation with KSR1 profile = 0.414; mean distance from KSR1 profile = 1.49
ULK3 [SID364005166] — mean correlation with KSR1 profile = 0.623; mean distance from KSR1 profile = 1
GPR15 [SID363996207] — mean correlation with KSR1 profile = -0.746; mean distance from KSR1 profile = 3.23
MAPK3 [SID363993904] — mean correlation with KSR1 profile = 0.603; mean distance from KSR1 profile = 1.57
FOXO4 [SID363996806] — mean correlation with KSR1 profile = -0.113; mean distance from KSR1 profile = 2.8
TXNDC12 [SID363999715] — mean correlation with KSR1 profile = -0.535; mean distance from KSR1 profile = 2.55
UTS2R [SID364001276] — mean correlation with KSR1 profile = 0.475; mean distance from KSR1 profile = 2.32
RNF170 [SID364003521] — mean correlation with KSR1 profile = -0.17; mean distance from KSR1 profile = 2.21
NOSIP [SID363999747] — mean correlation with KSR1 profile = -0.0211; mean distance from KSR1 profile = 3.06
CPEB4 [SID364003379] — mean correlation with KSR1 profile = 0.0548; mean distance from KSR1 profile = 2.17
FANCE [SID364002216] — mean correlation with KSR1 profile = -0.603; mean distance from KSR1 profile = 5.6
CREBZF [SID364002097] — mean correlation with KSR1 profile = 0.487; mean distance from KSR1 profile = 8.52
FAAH [SID363992703] — mean correlation with KSR1 profile = -0.51; mean distance from KSR1 profile = 2.12
PCDHA1 [SID364001227] — mean correlation with KSR1 profile = -0.361; mean distance from KSR1 profile = 3.08
AGPAT2 [SID363997223] — mean correlation with KSR1 profile = 0.423; mean distance from KSR1 profile = 2.26
TPD52L1 [SID363994406] — mean correlation with KSR1 profile = 0.551; mean distance from KSR1 profile = 1.2
